PubChem BioAssay AID1259405, NCATS – 2018
Here is one part, drawn at random, of about 50,000 reagents tested. About 4,000 of them (8%) count as active. 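Mouse siRNA library applied to hamster cells; one well for each siRNA.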 The numbers tell different reagents against one gene apart.

Aim: 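Mouse-designed siRNAs used to find CHO productivity engineering targets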 (primary screen)
System: Chinese hamster CHO-K1 ovary cells with stable secreted eGFP expression
Knock-down reagent: single siRNA against mouse genes, 0.8 pmol siRNA per well (2 µl of 400 nM stock)
Time to read-out: 3 days
Read-out: 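Per-well intracellular GFP measured by laser scanning cytometry, plus viability from ATP luminescence, each relative to plate median of non-targeting control wells, in %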
Reading the numbers: GFP, % of control: higher = more GFP per well, higher productivity; viability (ATP), % of control: higher = more viable cells (more ATP)
Hit rule: 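a knock-down is called active if GFP reaches 120% or more of non-targeting control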

With knock-down of Foxd2 #1, the record shows GFP, % of control 65; viability (ATP), % of control 83.6; inactive.
Silencing of Foxd2 #2 resulted in: GFP, % of control 77.6; viability (ATP), % of control 78.8; inactive.
With knock-down of Ckap2 #1, the record shows GFP, % of control 74.3; viability (ATP), % of control 84.1; inactive.
With knock-down of Ckap2 #2, the screen gave GFP, % of control 78.7; viability (ATP), % of control 80; inactive.
After knock-down of Ckap2 #3, the record shows GFP, % of control 70.7; viability (ATP), % of control 102; inactive.
Depletion of Mtmr1 #1 resulted in: GFP, % of control 111; viability (ATP), % of control 82.8; inactive.
Depletion of Mtmr1 #2 came out at: GFP, % of control 76.5; viability (ATP), % of control 56.3; inactive.
Silencing of Mtmr1 #3 came out at: GFP, % of control 98.1; viability (ATP), % of control 98.8; inactive.
Silencing of Coq5 #1 gave: GFP, % of control 125; viability (ATP), % of control 61.9; active.
Coq5 #2 scored GFP, % of control 75.2; viability (ATP), % of control 78; inactive.
For Coq5 #3 the deposit lists GFP, % of control 48.2; viability (ATP), % of control 49.3; inactive.
Knock-down of Uba1 #1 gave: GFP, % of control 69; viability (ATP), % of control 75.9; inactive.
Uba1 #2 scored GFP, % of control 92.8; viability (ATP), % of control 63.9; inactive.
Depletion of Uba1 #3 gave: GFP, % of control 67.8; viability (ATP), % of control 59.4; inactive.
With knock-down of Osr2 #1, the screen gave GFP, % of control 51.1; viability (ATP), % of control 59.8; inactive.
For Osr2 #2, the entry reads GFP, % of control 81.3; viability (ATP), % of control 86.1; inactive.
After knock-down of Osr2 #3, the record shows GFP, % of control 0; viability (ATP), % of control 56.5; inactive.
Depletion of Son #1 resulted in: GFP, % of control 82.7; viability (ATP), % of control 45.4; inactive.
Depletion of Son #2 resulted in: GFP, % of control 30.8; viability (ATP), % of control 23.7; inactive.
Depletion of Son #3 came out at: GFP, % of control 68.9; viability (ATP), % of control 61.6; inactive.
Ctps2 #1 gave GFP, % of control 52.2; viability (ATP), % of control 93.6; inactive.
Knock-down of Ctps2 #2 gave: GFP, % of control 59.6; viability (ATP), % of control 85.8; inactive.
With knock-down of Ctps2 #3, the record shows GFP, % of control 38.3; viability (ATP), % of control 52.9; inactive.
After knock-down of Sox18 #1 the results were GFP, % of control 60.9; viability (ATP), % of control 62.6; inactive.
Sox18 #2 scored GFP, % of control 67.6; viability (ATP), % of control 79; inactive.
Sox18 #3 showed GFP, % of control 94.1; viability (ATP), % of control 78.8; inactive.
Mmp20 #1 gave GFP, % of control 108; viability (ATP), % of control 114; inactive.
With knock-down of Mmp20 #2, the record shows GFP, % of control 71.8; viability (ATP), % of control 56.2; inactive.

A portion of the results above, as a working copy:
Son #2 — GFP, % of control: 30.8; viability (ATP), % of control: 23.7; Call: inactive
Son #3 — GFP, % of control: 68.9; viability (ATP), % of control: 61.6; Call: inactive
Ctps2 #1 — GFP, % of control: 52.2; viability (ATP), % of control: 93.6; Call: inactive
Ctps2 #2 — GFP, % of control: 59.6; viability (ATP), % of control: 85.8; Call: inactive
